Measured values taken from the supplement of paper PMC9433722.
Where a name gives a salt, the structure may show the parent alone. The list shows a part of the results. Repeats are few or missing, and single values can be far off.

How the values were obtained:
Saos-2 = test: cell viability (CCK-8) relative to DMSO control (% of control); higher = less cytotoxic; conditions: 10 µM; 48 h
U2OS = test: as above; conditions: 10 µM; 48 h

Compound | cell viability (Saos-2) | cell viability (U2OS)
CN(C)CCC[C@@]1(c2ccc(F)cc2)OCc2cc(C#N)ccc21 [Escitalopram oxalate] | 58.4 | 112
CC1=C(/C=C/C(C)=C/C=C/C(C)=C\C(=O)O)C(C)(C)CCC1 [13-cis-Retinoic acid] | 96.2 | 91.9
CO/N=C1\CN(c2nc3c(cc2F)c(=O)c(C(=O)O)cn3C2CC2)CC1CN (stereo not drawn) [Gemifloxacin] | 104 | 85.4
CC(C)/N=c1\cc2n(-c3ccc(Cl)cc3)c3ccccc3nc-2cc1Nc1ccc(Cl)cc1 [Clofazimine] | 103 | 102
CCOc1nc2cccc(C(=O)O)c2n1Cc1ccc(-c2ccccc2-c2nnn[nH]2)cc1 [Candesartan] | 59.5 | 115
CNS(=O)(=O)Cc1ccc2[nH]cc(CCN(C)C)c2c1 [Sumatriptan Succinate] | 63.8 | 113
O=C(c1ccccc1)c1ccc2n1CCC2C(=O)O (stereo not drawn) [Ketorolac Tromethamine] | 116 | 116
C[C@H](N[C@@H](CCc1ccccc1)C(=O)O)C(=O)N1CCC[C@H]1C(=O)O [Enalaprilat Maleate] | 67.5 | 112
Cn1cnc([N+](=O)[O-])c1Sc1ncnc2[nH]cnc12 [Azathioprine] | 55.9 | 80.3
CC(C)C[C@H](NC(=O)[C@@H](Cc1c[nH]c2ccccc12)NC(=O)[C@H](Cc1ccc(O)cc1)NC(=O)[C@H](CO)NC(=O)[C@H](Cc1c[nH]c2ccccc12)NC(=O)[C@H](Cc1cnc[nH]1)NC(=O)[C@@H]1CCC(=O)N1)C(=O)N[C@@H](CCCN=C(N)N)C(=O)N1CCC[C@H]1C(=O)NCC(N)=O [Triptorelin Acetate] | 63.6 | 117
Cc1cn[nH]c1 [Fomepizole] | 112 | 104
CCN(CC)C(=O)C1(c2ccccc2)CC1CN (stereo not drawn) [Milnacipran·HCl] | 105 | 102
CC(CN(C)C)CN1c2ccccc2CCc2ccccc21 (stereo not drawn) [Trimipramine Maleate] | 93.2 | 75
CC[C@H]1OC(=O)[C@H](C)[C@@H](O[C@H]2C[C@@](C)(OC)[C@@H](O)[C@H](C)O2)[C@H](C)[C@@H](O[C@@H]2O[C@H](C)C[C@H](N(C)C)[C@H]2O)[C@](C)(O)C[C@@H](C)CN(C)[C@H](C)[C@@H](O)[C@]1(C)O [Azithromycin] | 67.8 | 102
CN(CCOc1ccc(NS(C)(=O)=O)cc1)CCc1ccc(NS(C)(=O)=O)cc1 [Dofetilide] | 57.2 | 115
COc1cc(NC(C)CCCN)c2ncccc2c1 (stereo not drawn) [Primaquine diphosphate] | 54.4 | 89.2
OCCOCCN1CCN(C2=Nc3ccccc3Sc3ccccc32)CC1 [Quetiapine Fumarate] | 57.6 | 96.4
Nc1nc(F)nc2c1ncn2[C@@H]1O[C@H](COP(=O)(O)O)[C@@H](O)[C@@H]1O [Fludarabine Phosphate] | 87.7 | 69.6
CC(=O)[C@@]1(O)CC[C@H]2[C@@H]3C[C@H](C)C4=CC(=O)C=C[C@]4(C)[C@@]3(F)[C@@H](O)C[C@@]21C [Fluorometholone] | 112 | 100
Cc1cn([C@@H]2C[C@@H](O)[C@H](CO)O2)c(=O)[nH]c1=O [Telbivudine] | 105 | 99.4

Compound | cell viability (Saos-2) | cell viability (U2OS)
C#Cc1cccc(Nc2ncnc3cc(OCCOC)c(OCCOC)cc23)c1 [Erlotinib HCl] | 54.6 | 86.6
CN(C)CCOC(c1ccccc1)c1ccccc1.Cn1c(=O)c2[nH]c(Cl)nc2n(C)c1=O [Dimenhydrinate] | 112 | 107
Cn1c(=O)c2c(ncn2C)n(C)c1=O [Caffeine] | 63.1 | 103
CC1Cc2ccccc2N1NC(=O)c1ccc(Cl)c(S(N)(=O)=O)c1 (stereo not drawn) [Indapamide] | 65.1 | 93.1
O=C1Cc2cc(CCN3CCN(c4nsc5ccccc45)CC3)c(Cl)cc2N1 [Ziprasidone Hydrochloride Monohydrate] | 135 | 87.2
Cc1cccc(Nc2ccccc2C(=O)O)c1C [Mefenamic Acid] | 70.8 | 90.6
CC[C@@H]1/C=C(\C)C[C@H](C)C[C@H](OC)[C@H]2O[C@@](O)(C(=O)C(=O)N3CCCC[C@H]3C(=O)O[C@H](/C(C)=C/[C@@H]3CC[C@H](Cl)[C@H](OC)C3)[C@H](C)[C@@H](O)CC1=O)[C@H](C)C[C@@H]2OC [Pimecrolimus] | 92.4 | 118
COc1cc(C(C)=O)ccc1OCCCN1CCC(c2noc3cc(F)ccc23)CC1 [Iloperidone] | 106 | 102
CC(C)[C@H]1CC[C@H](C(=O)N[C@H](Cc2ccccc2)C(=O)O)CC1 [Nateglinide] | 62.1 | 107
CC(=O)OCC(=O)[C@@]1(O)CC[C@H]2[C@@H]3CCC4=CC(=O)CC[C@]4(C)[C@H]3[C@@H](O)C[C@@]21C [Hydrocortisone Acetate] | 70.4 | 99.4
CNNCc1ccc(C(=O)NC(C)C)cc1 [Procarbazine·HCl] | 67.4 | 106
Clc1ccc2c(c1)C(N1CCNCC1)=Nc1ccccc1O2 [Amoxapine] | 55.6 | 102
O=C(O)[C@H]1/C(=C/CO)O[C@@H]2CC(=O)N21 [Clavulanate Potassium] | 110 | 91.1
CO[C@H]1C[C@@H]2CC[C@@H](C)[C@@](O)(O2)C(=O)C(=O)N2CCCC[C@H]2C(=O)O[C@H]([C@H](C)C[C@@H]2CC[C@@H](OCCO)[C@H](OC)C2)CC(=O)[C@H](C)/C=C(\C)[C@@H](O)[C@@H](OC)C(=O)[C@H](C)C[C@H](C)/C=C/C=C/C=C/1C [Everolimus] | 84.8 | 63.3
CNC(=O)c1cc(Oc2ccc(NC(=O)Nc3ccc(Cl)c(C(F)(F)F)c3)cc2)ccn1 [Sorafenib tosylate] | 76.3 | 101
NCCC(O)(P(=O)(O)O)P(=O)(O)O [Pamidronate Disodium  Pentahydrate (Pamidronic Acid)] | 59.9 | 107
CC(C(=O)O)c1cccc(Oc2ccccc2)c1 (stereo not drawn) [Fenoprofen calcium salt dihydrate] | 69.3 | 100
Cc1ccccc1N1C(=O)c2cc(S(N)(=O)=O)c(Cl)cc2NC1C (stereo not drawn) [Metolazone] | 94.4 | 100
CCCc1nc(C(C)(C)O)c(C(=O)O)n1Cc1ccc(-c2ccccc2-c2nnn[nH]2)cc1 [Olmesartan] | 66.6 | 94.4
Nc1cc(N2CCCCC2)nc(N)[n+]1[O-] [Minoxidil] | 64.2 | 94.1

Compound | cell viability (Saos-2) | cell viability (U2OS)
O=C1Nc2ccc(Cl)cc2[C@@](C#CC2CC2)(C(F)(F)F)O1 [Efavirenz] | 59.2 | 101
CCN(CC)CCOc1ccc(C(=C(Cl)c2ccccc2)c2ccccc2)cc1 [Clomiphene Citrate] | 58.5 | 83.6
C=C1/C(=C\C=C2/CCC[C@]3(C)[C@@H]([C@H](C)/C=C/[C@@H](O)C4CC4)CC[C@@H]23)C[C@@H](O)C[C@@H]1O [Calcipotriene] | 65.4 | 109
CN(C)[C@@H]1C(O)=C(C(N)=O)C(=O)[C@@]2(O)C(O)=C3C(=O)c4c(O)cccc4[C@@](C)(O)[C@H]3C[C@@H]12 [Tetracycline] | 63.3 | 106
C#C[C@]1(O)CC[C@H]2[C@@H]3CCc4cc(OC)ccc4[C@H]3CC[C@@]21C [Mestranol] | 100 | 99.2
Clc1ccc(C(c2ccccc2Cl)C(Cl)Cl)cc1 (stereo not drawn) [Mitotane] | 109 | 107
CCCCCCCCCCC[C@@H](C[C@@H]1OC(=O)[C@H]1CCCCCC)OC(=O)[C@H](CC(C)C)NC=O [Orlistat] | 109 | 106
COc1cccc2c1C(=O)c1c(O)c3c(c(O)c1C2=O)C[C@@](O)(C(C)=O)C[C@@H]3O[C@H]1C[C@H](N)[C@H](O)[C@H](C)O1 [Daunorubicin . hydrochloride] | 16.2 | 18.3
Cc1ccc(Nc2nccc(N(C)c3ccc4c(C)n(C)nc4c3)n2)cc1S(N)(=O)=O [Pazopanib·HCl] | 82.8 | 84.7
CC=CC(=O)N(CC)c1ccccc1C [Crotamiton] | 69.8 | 102
CCN(CC)C(=O)/C(C#N)=C/c1cc(O)c(O)c([N+](=O)[O-])c1 [Entacapone] | 54.2 | 117
CC(O)(P(=O)(O)O)P(=O)(O)O [Etidronate Disodium] | 67.9 | 105
CCOc1cc(CC(=O)N[C@@H](CC(C)C)c2ccccc2N2CCCCC2)ccc1C(=O)O [Repaglinide] | 108 | 91.1
CC[C@H]1OC(=O)[C@H](C)C(=O)[C@H](C)[C@@H](O[C@@H]2O[C@H](C)C[C@H](N(C)C)[C@H]2O)[C@](C)(OC)C[C@@H](C)C(=O)[C@H](C)[C@H]2N(CCCCn3cnc(-c4cccnc4)c3)C(=O)O[C@]12C [Telithromycin] | 107 | 96.5
CC(=O)OCC(=O)[C@@]1(O)CC[C@H]2[C@@H]3CCC4=CC(=O)CC[C@]4(C)[C@@]3(F)[C@@H](O)C[C@@]21C [Fludrocortisone Acetate] | 115 | 89.4
N=C(N)c1ccc(OCCCCCOc2ccc(C(=N)N)cc2)cc1 [Pentamidine Isethionate] | 90.9 | 128
CC(=O)OCC[N+](C)(C)C [Acetylcholine Chloride] | 62.3 | 110
C[N+](C)(C)CCOC(=O)CCC(=O)OCC[N+](C)(C)C [Succinylcholine Chloride·2H2O] | 73 | 115
O=C(O)C[C@H](O)C[C@H](O)/C=C/c1c(C2CC2)nc2ccccc2c1-c1ccc(F)cc1 [Pitavastatin Calcium] | 38.1 | 58.8

Single records (already shown). Order of values: cell viability (Saos-2) | cell viability (U2OS)
C[N+](C)(C)CCOC(=O)CCC(=O)OCC[N+](C)(C)C [Succinylcholine Chloride·2H2O] is listed with 73 | 115
COc1cccc2c1C(=O)c1c(O)c3c(c(O)c1C2=O)C[C@@](O)(C(C)=O)C[C@@H]3O[C@H]1C[C@H](N)[C@H](O)[C@H](C)O1 [Daunorubicin . hydrochloride] is listed with 16.2 | 18.3
CCN(CC)C(=O)/C(C#N)=C/c1cc(O)c(O)c([N+](=O)[O-])c1 [Entacapone] is listed with 54.2 | 117
